# Results of single-concentration screens

Amino acid sequences for entries named in this document (tags omitted).
UniProt P9WPC5, whole entry: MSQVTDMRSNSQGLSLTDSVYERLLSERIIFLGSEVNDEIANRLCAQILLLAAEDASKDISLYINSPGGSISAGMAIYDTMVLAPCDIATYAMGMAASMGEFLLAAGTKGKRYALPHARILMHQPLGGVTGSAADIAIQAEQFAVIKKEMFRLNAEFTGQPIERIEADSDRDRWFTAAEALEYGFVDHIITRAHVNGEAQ
UniProt P9WPC3, whole entry partner: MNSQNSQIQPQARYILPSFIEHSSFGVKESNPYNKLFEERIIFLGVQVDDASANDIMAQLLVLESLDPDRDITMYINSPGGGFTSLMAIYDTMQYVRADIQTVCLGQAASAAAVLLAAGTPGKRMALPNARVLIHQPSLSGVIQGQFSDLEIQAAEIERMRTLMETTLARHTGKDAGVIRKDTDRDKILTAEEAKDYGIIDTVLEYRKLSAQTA
UniProt P9WNZ1, whole entry: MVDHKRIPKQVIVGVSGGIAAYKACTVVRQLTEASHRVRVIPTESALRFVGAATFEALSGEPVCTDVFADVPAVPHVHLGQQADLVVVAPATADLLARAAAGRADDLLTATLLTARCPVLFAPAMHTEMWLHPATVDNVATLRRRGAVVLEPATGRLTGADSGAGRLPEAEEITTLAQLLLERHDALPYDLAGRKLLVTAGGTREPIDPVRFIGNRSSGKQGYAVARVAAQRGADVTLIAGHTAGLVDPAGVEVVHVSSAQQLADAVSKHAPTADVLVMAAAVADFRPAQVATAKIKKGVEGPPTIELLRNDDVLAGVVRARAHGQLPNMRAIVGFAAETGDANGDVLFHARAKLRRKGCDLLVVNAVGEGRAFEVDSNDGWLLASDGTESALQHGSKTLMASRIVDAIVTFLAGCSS

A: 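Protease assay of ClpP1P2, read by the AMC dye that it sets free. Target: ClpP1P2, Mycobacterium tuberculosis (UniProt P9WPC5 and UniProt P9WPC3). Tested at 50 µM. Direction is inferred from only a few compounds that gave an IC50; most scored high, so higher reads as stronger inhibition. Most other retested compounds had strongly negative values. Of about 69,000 compounds tested this way, about 10 (0.015%) reached 50% or more in at least one test.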
B: 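Enzyme assay of CoaBC with a phosphate dye (Biomol Green) read at 650 nm. Target: Coenzyme A biosynthesis protein CoaBC, Mycobacterium tuberculosis (UniProt P9WNZ1). Concentration: 30 µM. Higher reads as stronger inhibition, judged from the few compounds that gave an IC50. Most strong results did not repeat in a second test. Size under these conditions: about 67,000 compounds, about 40 of them at 50% or above in at least one test.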

Results are given as percent effect.
The controls that fix the scale are not given in the record; negative values are as filed.
The compounds are a random part of those screened.

Result for CCOc1ccc(Cl)cc1CCNC(=O)c1ccc(=O)n(C)c1 was A: -8.575%; B: 3.648%. For CC1CN(C)c2ccccc2CN1C(=O)NCc1ccon1 (stereo unspecified) the result was A: -1.805%; B: 4.069%. Result for CC(Nc1cccc2c1OCCO2)C(=O)NC(N)=O (stereo unspecified) was A: 2.498%; B: -10.98%. CCOC(=O)C1CCN(C(=O)Cn2ccc3cc(Br)ccc32)CC1 gave A: 2.242%; B: 10.9%. With O=C(c1cnccn1)N1CCCC2(COCCN(CC3CC3)C2)C1 (stereo unspecified) the screen gave A: -6.946%; B: 1.158%. With CCC(O)Cn1nc(-c2ccc(C(=O)O)cc2)cc1-c1cccc(F)c1 (stereo unspecified) the screen gave A: -0.396%; B: -27.13%. Result for CCN1CC(C(=O)N2CCN(c3nsc4ccccc34)CC2)CCC1=O (stereo unspecified) was A: -19.15%; B: -6.667%. Result for CCN(CC(C)C#N)C(=O)c1cccc(COc2ccc(C)nc2)c1 (stereo unspecified) was A: -5.692%; B: 1.978%.

Result for COC(=O)c1ccc(N2CCN(C(=O)C3CC3)C(C)C2)cc1 (stereo unspecified) was A: 6.341%; B: 0.9615%. COc1ccc(C(=O)N2CC[C@@]3(O)CCCC[C@H]3C2)cc1OC gave A: 14.51%; B: -1.01%. CN(C)CCN1CCO[C@H]2CN(Cc3cnn(C)c3)C[C@H]21 gave A: -9.411%; B: -6.608%. With O=C(c1cccn1Cc1cccs1)N1CCN(C(=O)C2CC2)CC1 the screen gave A: 0.08112%; B: 1.687%. Cc1ccccc1C(C(=O)NCCN1CCC(CO)CC1)N(C)C (stereo unspecified) read A: -5.55%; B: -1.229%. Result for O=C(NC1CCN(c2ccc(-c3ccccc3F)nn2)C1)c1ccc[nH]1 (stereo unspecified) was A: -3.753%; B: 18.82%. COc1ccccc1NC(=O)Cn1c(=O)nc(N)c2cc(C)sc21 read A: -2.247%; B: 2.542%. COc1c(C2CCCN2C(=O)c2cncnc2C)c(C)nn1C (stereo unspecified) read A: 19.59%; B: 3.162%.

CCc1nnc(C(C)N2CCN(CCC(=O)NC3CC3)CC2)o1 (stereo unspecified) read A: 10.73%; B: -7.443%. CCOc1ncccc1CNC(=O)c1cccc(C)n1 read A: -14.57%; B: 3.158%. CCCc1cc(CNC2CCN(c3cc(C)nc(N)n3)CC2)on1 read A: 1.531%; B: -6.777%. Cc1nc2n(n1)CC(NCC(=O)N(C)Cc1cccs1)CC2 (stereo unspecified) gave A: -25.82%; B: 16.24%. For CNC(=O)N1CCN(C(=O)N(C)C)CC2(CC(=O)N(C)C2)C1 (stereo unspecified) the result was A: -4.01%; B: 6.015%. Result for Cn1ccnc1C(O)c1ccccc1N1CCN(Cc2ccsc2)CC1 (stereo unspecified) was A: -15.74%; B: -4.932%. Result for CC(C)(C)NC(=O)CNc1ncccn1 was A: -1.924%; B: 1.635%. For CCOCC(=O)N1C[C@@H]2CC[C@H](C1)N(Cc1ccccn1)C2=O the result was A: -1.368%; B: -2.575%.

With CCn1c(C(=O)N2CCN(C(=O)COC)CC2)cc2ccccc21 the screen gave A: 6.594%; B: 4.096%. With O=C(COc1ccc2c(c1)OCO2)NCc1ccco1 the screen gave A: -22.97%; B: -4.619%. CC(NC(=O)Cc1ccon1)c1ccc(OCC2CC2)c(F)c1 (stereo unspecified) read A: -12.25%; B: 8.632%. COc1ccc(CCC(=O)NC2CCC(O)CC2)cc1OC (stereo unspecified) gave A: 3.495%; B: -0.8347%.

Once more, the final 3:

| compound | A | B |
|---|---|---|
| `O=C(COc1ccc2c(c1)OCO2)NCc1ccco1` | -22.97 | -4.619 |
| `CC(NC(=O)Cc1ccon1)c1ccc(OCC2CC2)c(F)c1` (stereo unspecified) | -12.25 | 8.632 |
| `COc1ccc(CCC(=O)NC2CCC(O)CC2)cc1OC` (stereo unspecified) | 3.495 | -0.8347 |

Data taken from ChEMBL document CHEMBL3988442, “University of Dundee, Small-Polar-MMV Screening Library” (2021).